In paper PMC2684528:
These are yes or no findings as the source states them, for the method shown. Binding seen in cells or lysates may run through a third protein. Some entries that bind do so weakly or less than the wild type. For some of these results: Sequences can lack the tags named with a protein. One block for each molecule: values may come before it.

By UniProt entry, the sequences of proteins in these tests, tags left out. Where a name states a change or a piece, a line headed by the entry shows the natural chain unless it says otherwise. Chains listed by the source or under a name are the forms on record and can include a tag or linker.
UniProt P49023: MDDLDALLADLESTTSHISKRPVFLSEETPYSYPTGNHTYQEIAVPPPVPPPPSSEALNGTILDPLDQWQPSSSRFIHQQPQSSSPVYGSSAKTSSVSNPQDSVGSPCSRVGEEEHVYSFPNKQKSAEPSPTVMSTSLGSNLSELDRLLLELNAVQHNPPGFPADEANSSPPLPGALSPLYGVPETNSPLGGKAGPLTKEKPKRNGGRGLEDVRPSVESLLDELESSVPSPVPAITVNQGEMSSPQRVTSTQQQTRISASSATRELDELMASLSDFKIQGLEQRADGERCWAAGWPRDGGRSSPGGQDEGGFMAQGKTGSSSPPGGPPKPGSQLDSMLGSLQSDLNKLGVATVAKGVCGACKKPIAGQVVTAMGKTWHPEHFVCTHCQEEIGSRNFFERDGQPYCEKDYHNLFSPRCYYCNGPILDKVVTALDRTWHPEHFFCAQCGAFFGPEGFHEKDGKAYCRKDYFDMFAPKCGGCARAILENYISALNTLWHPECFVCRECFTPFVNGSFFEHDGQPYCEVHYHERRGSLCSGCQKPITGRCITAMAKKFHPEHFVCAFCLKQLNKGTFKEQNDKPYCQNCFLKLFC
UniProt P34152: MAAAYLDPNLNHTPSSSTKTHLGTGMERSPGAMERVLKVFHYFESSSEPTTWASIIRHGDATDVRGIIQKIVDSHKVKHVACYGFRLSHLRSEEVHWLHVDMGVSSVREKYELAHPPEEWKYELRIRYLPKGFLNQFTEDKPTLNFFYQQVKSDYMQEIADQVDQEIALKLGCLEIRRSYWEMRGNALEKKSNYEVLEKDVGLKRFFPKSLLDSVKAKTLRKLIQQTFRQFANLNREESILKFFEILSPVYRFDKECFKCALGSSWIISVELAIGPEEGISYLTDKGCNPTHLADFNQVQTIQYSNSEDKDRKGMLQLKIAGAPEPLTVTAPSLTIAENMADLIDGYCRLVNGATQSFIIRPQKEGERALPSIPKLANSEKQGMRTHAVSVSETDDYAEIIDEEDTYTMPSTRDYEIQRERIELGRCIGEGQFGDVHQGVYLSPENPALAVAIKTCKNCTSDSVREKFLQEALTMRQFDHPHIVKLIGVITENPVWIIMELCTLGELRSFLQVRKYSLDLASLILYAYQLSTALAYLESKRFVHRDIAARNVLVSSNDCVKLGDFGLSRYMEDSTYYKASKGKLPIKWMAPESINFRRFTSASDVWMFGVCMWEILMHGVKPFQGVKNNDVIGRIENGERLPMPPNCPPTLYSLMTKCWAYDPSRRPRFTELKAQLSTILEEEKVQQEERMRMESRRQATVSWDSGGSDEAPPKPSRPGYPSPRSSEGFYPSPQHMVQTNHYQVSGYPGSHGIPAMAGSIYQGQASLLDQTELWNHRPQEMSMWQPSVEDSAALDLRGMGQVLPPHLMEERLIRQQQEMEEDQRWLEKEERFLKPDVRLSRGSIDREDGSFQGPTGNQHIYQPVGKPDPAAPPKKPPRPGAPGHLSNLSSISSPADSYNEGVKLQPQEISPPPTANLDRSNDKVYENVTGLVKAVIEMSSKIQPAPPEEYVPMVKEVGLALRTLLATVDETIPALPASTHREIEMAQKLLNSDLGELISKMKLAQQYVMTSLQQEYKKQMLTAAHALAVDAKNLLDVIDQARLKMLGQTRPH
GFP-FAK^KD (P34152, form named): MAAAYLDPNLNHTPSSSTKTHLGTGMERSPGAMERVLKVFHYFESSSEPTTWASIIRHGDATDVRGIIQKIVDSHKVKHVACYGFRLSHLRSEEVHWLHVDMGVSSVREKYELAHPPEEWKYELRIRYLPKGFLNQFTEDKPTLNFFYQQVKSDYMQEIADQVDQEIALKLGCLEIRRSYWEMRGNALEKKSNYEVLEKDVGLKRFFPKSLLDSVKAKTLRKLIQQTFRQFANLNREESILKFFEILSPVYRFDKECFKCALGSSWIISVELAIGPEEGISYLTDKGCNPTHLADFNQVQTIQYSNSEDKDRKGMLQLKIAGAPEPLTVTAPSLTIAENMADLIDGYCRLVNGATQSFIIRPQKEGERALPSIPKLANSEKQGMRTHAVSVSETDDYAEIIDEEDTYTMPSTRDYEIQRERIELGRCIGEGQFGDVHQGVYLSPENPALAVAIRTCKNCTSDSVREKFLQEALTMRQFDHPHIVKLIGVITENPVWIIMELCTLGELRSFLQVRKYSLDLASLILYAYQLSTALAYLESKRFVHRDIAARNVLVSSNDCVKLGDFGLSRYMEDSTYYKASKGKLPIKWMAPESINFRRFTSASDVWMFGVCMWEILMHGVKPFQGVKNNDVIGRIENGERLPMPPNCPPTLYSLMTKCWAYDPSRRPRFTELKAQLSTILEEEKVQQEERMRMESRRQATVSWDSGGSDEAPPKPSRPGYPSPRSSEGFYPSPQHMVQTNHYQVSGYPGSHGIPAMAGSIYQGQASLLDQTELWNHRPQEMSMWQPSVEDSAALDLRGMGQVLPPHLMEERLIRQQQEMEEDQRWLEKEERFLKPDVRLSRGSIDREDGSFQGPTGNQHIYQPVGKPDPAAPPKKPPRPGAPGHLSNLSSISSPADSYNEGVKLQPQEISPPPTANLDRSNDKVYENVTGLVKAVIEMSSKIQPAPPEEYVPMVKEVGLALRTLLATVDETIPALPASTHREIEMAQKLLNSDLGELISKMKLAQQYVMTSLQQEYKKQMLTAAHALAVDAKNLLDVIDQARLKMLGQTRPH
GFP-FAK^Opn (P34152, form named): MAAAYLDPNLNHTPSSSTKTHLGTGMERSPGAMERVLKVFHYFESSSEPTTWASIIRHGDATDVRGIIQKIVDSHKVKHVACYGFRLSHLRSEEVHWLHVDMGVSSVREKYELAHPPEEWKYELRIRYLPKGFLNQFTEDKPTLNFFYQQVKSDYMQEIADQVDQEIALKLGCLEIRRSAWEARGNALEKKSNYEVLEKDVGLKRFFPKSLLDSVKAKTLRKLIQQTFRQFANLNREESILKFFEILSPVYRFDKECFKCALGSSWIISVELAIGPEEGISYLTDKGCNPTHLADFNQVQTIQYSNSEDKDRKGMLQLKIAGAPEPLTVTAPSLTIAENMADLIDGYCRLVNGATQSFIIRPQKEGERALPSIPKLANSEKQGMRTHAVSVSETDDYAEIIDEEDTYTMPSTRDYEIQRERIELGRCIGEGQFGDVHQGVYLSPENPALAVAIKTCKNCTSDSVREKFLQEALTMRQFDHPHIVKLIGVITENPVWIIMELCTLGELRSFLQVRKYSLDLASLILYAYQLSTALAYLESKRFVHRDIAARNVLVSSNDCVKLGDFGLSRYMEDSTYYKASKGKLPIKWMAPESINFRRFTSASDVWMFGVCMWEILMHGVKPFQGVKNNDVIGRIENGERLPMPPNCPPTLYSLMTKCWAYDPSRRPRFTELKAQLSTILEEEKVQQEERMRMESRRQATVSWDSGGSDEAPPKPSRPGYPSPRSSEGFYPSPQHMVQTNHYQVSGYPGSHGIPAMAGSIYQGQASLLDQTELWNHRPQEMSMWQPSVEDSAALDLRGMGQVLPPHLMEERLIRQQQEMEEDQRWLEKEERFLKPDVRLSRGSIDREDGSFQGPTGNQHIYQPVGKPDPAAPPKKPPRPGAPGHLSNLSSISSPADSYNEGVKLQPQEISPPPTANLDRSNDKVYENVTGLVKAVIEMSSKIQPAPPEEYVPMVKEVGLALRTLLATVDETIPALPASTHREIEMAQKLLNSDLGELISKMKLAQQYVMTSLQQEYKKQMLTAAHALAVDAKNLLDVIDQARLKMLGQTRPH

Key:
GFP-paxillin (human) [1] = target: GFP-paxillin (human) (UniProt P49023); assay: co-IP; lysates of HEK293T cells overexpressing FLAG-Nudel, GFP-paxillin (or GFP-Pax^LD, GFP-Pax^LIM) and a third GFP fusion protein (vinculin, FAK or a FAK mutant); anti-FLAG beads; immunoblotting
GFP-paxillin (human) [2] = target: GFP-paxillin (human) (UniProt P49023); assay: co-IP; as Figure S6B (FLAG-Nudel, GFP-Paxillin and a GFP-FAK mutant coexpressed) but in NIH3T3 and ECV304 cells; unpublished data
FLAG-Nudel (human) [3] = target: T1, FLAG-Nudel (human) (UniProt Q9GZM8); assay: co-IP; lysates of HEK293T cells overexpressing FLAG-Nudel, GFP-paxillin (or GFP-Pax^LD, GFP-Pax^LIM) and a third GFP fusion protein (vinculin, FAK or a FAK mutant); anti-FLAG beads; immunoblotting
T1 sequence: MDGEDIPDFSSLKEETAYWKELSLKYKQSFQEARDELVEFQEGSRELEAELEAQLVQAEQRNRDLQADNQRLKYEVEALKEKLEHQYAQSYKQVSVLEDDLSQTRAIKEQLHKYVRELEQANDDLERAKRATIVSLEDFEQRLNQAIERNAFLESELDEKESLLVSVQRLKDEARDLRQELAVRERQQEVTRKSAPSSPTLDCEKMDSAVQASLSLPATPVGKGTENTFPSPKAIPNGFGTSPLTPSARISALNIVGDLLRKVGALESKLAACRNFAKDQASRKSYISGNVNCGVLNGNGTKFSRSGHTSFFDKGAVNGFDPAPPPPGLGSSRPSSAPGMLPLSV

FLAG-Nudel (human) [4] = target: T1, FLAG-Nudel (human); assay: co-IP; exogenous proteins expressed separately in HEK293T cells; cell lysates premixed for 2 h, then co-IP with anti-FLAG resin
FLAG-Nudel (human) [5] = target: T1, FLAG-Nudel (human); assay: co-IP; as Figure S6B (FLAG-Nudel, GFP-Paxillin and a GFP-FAK mutant coexpressed) but in NIH3T3 and ECV304 cells; unpublished data
FLAG-Nudel (human) [6] = target: T1, FLAG-Nudel (human); assay: co-IP; lysates of HEK293T cells coexpressing GFP-paxillin and a FLAG fusion protein; anti-FLAG M2 agarose beads 2 h at 4 °C in co-IP buffer (20 mM Tris-HCl pH 7.5, 100 mM KCl, 0.1% NP-40, 1 mM EDTA, 10% glycerol, 1 mM DTT, phosphatase and protease inhibitors); eluted with FLAG peptide; Ponceau S staining and immunoblotting
[7] = target: T2, FLAG-Nudel (expressed in E. coli) (human) (UniProt Q9GZM8); assay: pull-down; reciprocal: bacterial lysates containing GST-tagged vinculin or paxillin mixed with lysate containing FLAG-Nudel, then anti-FLAG resin (the legend calls it co-IP)
T2 sequence: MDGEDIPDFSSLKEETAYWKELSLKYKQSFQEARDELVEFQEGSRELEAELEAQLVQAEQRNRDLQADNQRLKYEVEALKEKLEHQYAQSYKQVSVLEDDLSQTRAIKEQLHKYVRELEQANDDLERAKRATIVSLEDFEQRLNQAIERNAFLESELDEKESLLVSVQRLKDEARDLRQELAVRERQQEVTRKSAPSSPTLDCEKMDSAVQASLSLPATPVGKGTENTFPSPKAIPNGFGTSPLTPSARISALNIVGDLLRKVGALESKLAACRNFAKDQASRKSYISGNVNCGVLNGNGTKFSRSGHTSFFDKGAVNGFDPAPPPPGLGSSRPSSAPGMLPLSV

FLAG-GFP-Nudel (human) = target: T3, FLAG-GFP-Nudel (human) (UniProt Q9GZM8); assay: co-IP; low levels of FLAG-GFP-Nudel expressed in HEK293T cells transfected with control or increasing amounts of FAK RNAi plasmids; anti-FLAG resin; endogenous proteins detected by immunoblotting
T3 sequence: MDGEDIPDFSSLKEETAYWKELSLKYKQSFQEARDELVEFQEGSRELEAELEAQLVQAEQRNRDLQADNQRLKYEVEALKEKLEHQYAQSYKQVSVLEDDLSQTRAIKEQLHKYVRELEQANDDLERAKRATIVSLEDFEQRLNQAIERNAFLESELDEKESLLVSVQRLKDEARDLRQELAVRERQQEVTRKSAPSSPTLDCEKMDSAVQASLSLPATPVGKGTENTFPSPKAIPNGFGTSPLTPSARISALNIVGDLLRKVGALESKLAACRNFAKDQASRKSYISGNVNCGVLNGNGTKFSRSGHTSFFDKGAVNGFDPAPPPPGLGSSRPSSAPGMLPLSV

GST-paxillin (human) = GST-paxillin (human) (UniProt P49023); assay: pull-down; bacterial lysates containing GST fusion proteins and FLAG-Nudel premixed for 1 h, then glutathione beads for 1 h at 4 °C; immunoblotting

binding (GFP-paxillin (human) [1]): binds
Molecule: GFP-FAK (from UniProt P34152 1-1052) (enzyme)

binding [7]: binds
Molecule: GST-paxillin (from UniProt P49023 1-591)

binding (FLAG-Nudel (human) [6]): binds
Molecule: Tyr/Ser/Thr-phosphorylated isoforms of GFP-paxillin (from UniProt P49023 1-591)

binding (FLAG-GFP-Nudel (human)): binds
Molecule: endogenous paxillin (from UniProt P49023 1-591)

binding (GST-paxillin (human)): binds
B2: FLAG-Nudel (expressed in E. coli) (protein, UniProt Q9GZM8 1-345)
chain: MDGEDIPDFSSLKEETAYWKELSLKYKQSFQEARDELVEFQEGSRELEAELEAQLVQAEQRNRDLQADNQRLKYEVEALKEKLEHQYAQSYKQVSVLEDDLSQTRAIKEQLHKYVRELEQANDDLERAKRATIVSLEDFEQRLNQAIERNAFLESELDEKESLLVSVQRLKDEARDLRQELAVRERQQEVTRKSAPSSPTLDCEKMDSAVQASLSLPATPVGKGTENTFPSPKAIPNGFGTSPLTPSARISALNIVGDLLRKVGALESKLAACRNFAKDQASRKSYISGNVNCGVLNGNGTKFSRSGHTSFFDKGAVNGFDPAPPPPGLGSSRPSSAPGMLPLSV

The remaining lines, values behind:

Molecule: GFP-FAK^KD (from UniProt P34152 1-1052) (enzyme)
binding (GFP-paxillin (human) [1]): binds

Molecule: GFP-FAK^Opn (from UniProt P34152 1-1052) (enzyme)
binding (GFP-paxillin (human) [1]): binds
binding (GFP-paxillin (human) [2]): binds

Molecule: GFP-paxillin (from UniProt P49023 1-591)
binding (FLAG-Nudel (human) [3]): binds
binding (FLAG-Nudel (human) [4]): binds
binding (FLAG-Nudel (human) [5]): binds
binding (FLAG-Nudel (human) [6]): binds

B1: GFP-Cdc42GAP (protein, UniProt Q07960 1-439)
chain: MDPLSELQDDLTLDDTSEALNQLKLASIDEKNWPSDEMPDFPKSDDSKSSSPELVTHLKWDDPYYDIARHQIVEVAGDDKYGRKIIVFSACRMPPSHQLDHSKLLGYLKHTLDQYVESDYTLLYLHHGLTSDNKPSLSWLRDAYREFDRKYKKNIKALYIVHPTMFIKTLLILFKPLISFKFGQKIFYVNYLSELSEHVKLEQLGIPRQVLKYDDFLKSTQKSPATAPKPMPPRPPLPNQQFGVSLQHLQEKNPEQEPIPIVLRETVAYLQAHALTTEGIFRRSANTQVVREVQQKYNMGLPVDFDQYNELHLPAVILKTFLRELPEPLLTFDLYPHVVGFLNIDESQRVPATLQVLQTLPEENYQVLRFLTAFLVQISAHSDQNKMTNTNLAVVFGPNLLWAKDAAITLKAINPINTFTKFLLDHQGELFPSPDPSGL
binding (FLAG-Nudel (human) [4]): binds
